Source: patent US11980613B2, “Methods for reversing HIV latency using BAF complex modulating compounds” (priority 2018, dated 2024)

Tested on: mESCs
Experiment: RNA-Seq of compound treated mESCs compared with Brg1 and Arid1a knockout
Assay type: cell-based, mouse
Settings: 30 μM, 18 h

CO[C@H]1CN(C)C(=O)c2cc(NC(=O)NC(C)C)ccc2OC[C@H](C)N(Cc2ccc(-c3ccccn3)cc2)C[C@@H]1C [BRD-K98645985]
differentially regulated genes, down: 1916 genes
differentially regulated genes, up: 1518 genes
differentially regulated genes (1.5-fold change, P<0.05): 3534 genes
